Data taken from ChEMBL document CHEMBL3988442, “University of Dundee, Small-Polar-MMV Screening Library” (2021).

Toxoplasma: 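Assay of Toxoplasma gondii numbers, read through their beta-galactosidase reporter with a colour substrate. Compounds at 10 µM. Higher reads as fewer parasites (inferred from which compounds were picked for retests). Size under these conditions: about 67,000 compounds, about 260 of them at 50% or above in at least one test.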
T. brucei: 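Whole-parasite assay of Trypanosoma brucei over 72 hours; the read-out is not stated. Compounds at 30 µM. The record gives no direction; compounds that gave an IC50 in retests scored well above the rest, so higher reads as stronger inhibition. Values scatter widely below zero; nearly all retest evidence comes from the higher of the two concentrations used. About 64,000 compounds were tested under these conditions; 1.5% (about 940) showed 50% or more at least once.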

Results are given as percent effect. The controls that fix the scale are not given in the record; negative values are as filed. The compounds are a random part of those screened.

CCOC(=O)NCCNC(=O)c1cc(Br)cn1C(C)C read Toxoplasma: -3.287%; T. brucei: -21.26%.
CCc1nsc(NC2CCCn3nc(COC)nc32)n1 (configuration not stated) read Toxoplasma: -0.9912%; T. brucei: 7.177%.
O=C(O)C(F)(F)F.[H][C@@]12CCCO[C@]1([H])[C@@H](NC(=O)c1cccn1C)CN2Cc1ccoc1 read Toxoplasma: 12.92%; T. brucei: -1.992%.
CC(C)S(=O)(=O)N1CCCC(c2cccc(C(=O)O)c2)C1 (configuration not stated) read Toxoplasma: -2.029%; T. brucei: -13.18%.
CCn1nccc1S(=O)(=O)N1CCC2(CCCN(C(C)C)C2=O)C1 (configuration not stated) read T. brucei: -22.81%.
Cc1cc(NC(=O)NCc2ccccc2OC(F)F)n(C)n1 read Toxoplasma: -0.5062%; T. brucei: -19.48%.
Cn1cc(C2CCCN2CCc2nc3ccccc3c(=O)[nH]2)cn1 (configuration not stated) read Toxoplasma: -3.565%; T. brucei: 2.711%.
CC(C)N1CCCC(CNC(=O)Cc2csc(-c3cccnc3)n2)C1 (configuration not stated) read Toxoplasma: -4.991%; T. brucei: 4.922%.
COc1cc2c(cc1CN1CCC3(CCCN(C)C3=O)C1)OCCO2 (configuration not stated) read Toxoplasma: -3.564%; T. brucei: -18.64%.
O=C(Nc1ccc(F)cc1)N(CCC(F)(F)F)C[C@H](O)CO read Toxoplasma: 14.41%; T. brucei: -40.46%.
O=C(O)C(F)(F)F.O=C(O)C(F)(F)F.[H][C@@]12COC[C@]1([H])[C@@H](OCc1csc(C)n1)CN2CCOC read Toxoplasma: 12.35%; T. brucei: -14.33%.
N#Cc1c(SCCN2CCCCC2)sc2c(O)cc(O)nc12 read Toxoplasma: -38.83%; T. brucei: -36.37%.
CCc1noc(CCCC(=O)Nc2cc(C(F)(F)F)c[nH]c2=O)n1 read T. brucei: -0.05984%.
O=C(O)[C@@H]1CN(C(=O)NCC2CCCCC2)C[C@H]1c1ccccn1 read Toxoplasma: 2.871%; T. brucei: -16.26%.
CC1CN(C)CCN1C(=O)Nc1nc(-c2ccco2)cs1 (configuration not stated) read Toxoplasma: 10.53%; T. brucei: -11.15%.
CC(C)N1CCC(CC(=O)N2CCC(C(O)c3nccn3C)CC2)CC1 (configuration not stated) read Toxoplasma: 7.968%; T. brucei: -20.59%.
CN1CCN(C(CNC(=O)c2ccc(Cl)cc2F)c2cccs2)CC1 (configuration not stated) read Toxoplasma: 1.85%; T. brucei: -14.33%.
CN1CCC(Cc2noc(-c3cn(Cc4ccc(F)cc4)nn3)n2)CC1 read Toxoplasma: -0.574%; T. brucei: -35.81%.
CCc1cnc(N)nc1N(C)CCc1cnn(C)c1 read Toxoplasma: 35.72%; T. brucei: -7.401%.
Cc1cnn(CC2CCCN2C(=O)c2ccccc2-n2cnnn2)c1 (configuration not stated) read Toxoplasma: -4.682%; T. brucei: -8.211%.
Cc1nc(CNC2CCc3nc(C(C)C)nn3C2)oc1C (configuration not stated) read Toxoplasma: 8.654%; T. brucei: -8.919%.
COCCn1cc(NC(=O)C(C)CCc2ccccc2F)ccc1=O (configuration not stated) read Toxoplasma: -1.622%; T. brucei: -87.45%.
O=C(C1CCCO1)N1CCC2(CC1)COCCN2CC1CC1 (configuration not stated) read Toxoplasma: 4.901%; T. brucei: -12.65%.
CC(NC(=O)NCCOc1ccc(Cl)cc1)c1nncn1C (configuration not stated) read Toxoplasma: 2.548%; T. brucei: 9.636%.

3 of the entries, repeated:

structure,Toxoplasma,T. brucei
CC(C)S(=O)(=O)N1CCCC(c2cccc(C(=O)O)c2)C1 (configuration not stated),-2.029,-13.18
Cc1nc(CNC2CCc3nc(C(C)C)nn3C2)oc1C (configuration not stated),8.654,-8.919
CCOC(=O)NCCNC(=O)c1cc(Br)cn1C(C)C,-3.287,-21.26